# Results are given in words; binding and its absence hold for the method and conditions named. For part of these data: Binding seen in cells or lysates may run through a third protein. Some binding calls cover weakened binding; strength is not graded here. Sequences can lack the tags named with a protein.
# Chains of the proteins cited; added tags and fusions are not shown. Lines headed by an entry give the natural chain unless they say otherwise; changes in a name come on top.
# UniProt P04386: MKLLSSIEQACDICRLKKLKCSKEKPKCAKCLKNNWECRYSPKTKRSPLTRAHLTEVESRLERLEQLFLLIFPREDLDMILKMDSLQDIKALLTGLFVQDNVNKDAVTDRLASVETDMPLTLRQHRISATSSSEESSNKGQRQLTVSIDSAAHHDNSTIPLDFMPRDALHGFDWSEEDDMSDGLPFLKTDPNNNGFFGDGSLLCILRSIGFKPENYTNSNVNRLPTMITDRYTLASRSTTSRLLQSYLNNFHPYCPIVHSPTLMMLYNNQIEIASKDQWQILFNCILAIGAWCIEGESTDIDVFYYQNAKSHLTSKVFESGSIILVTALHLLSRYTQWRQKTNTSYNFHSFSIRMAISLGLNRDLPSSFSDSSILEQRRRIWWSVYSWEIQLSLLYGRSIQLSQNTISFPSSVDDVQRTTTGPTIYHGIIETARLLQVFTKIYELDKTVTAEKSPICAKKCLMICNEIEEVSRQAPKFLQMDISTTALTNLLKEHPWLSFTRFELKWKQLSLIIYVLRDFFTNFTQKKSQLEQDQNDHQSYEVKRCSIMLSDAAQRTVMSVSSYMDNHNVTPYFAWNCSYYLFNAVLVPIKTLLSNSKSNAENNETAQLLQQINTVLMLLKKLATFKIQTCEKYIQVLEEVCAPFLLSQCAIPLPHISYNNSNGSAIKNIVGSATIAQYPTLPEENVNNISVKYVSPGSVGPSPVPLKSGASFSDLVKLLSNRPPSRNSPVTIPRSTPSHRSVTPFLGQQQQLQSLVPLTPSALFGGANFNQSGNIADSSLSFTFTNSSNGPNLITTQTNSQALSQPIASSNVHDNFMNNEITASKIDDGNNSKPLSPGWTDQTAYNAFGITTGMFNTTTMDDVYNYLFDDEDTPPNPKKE
# T1: GST-Rnr1 (glutathione-S-transferase fused to Rnr1, plasmid pWJ744) (yeast (Saccharomyces cerevisiae)) (UniProt P21524)
# T1 sequence (looked up): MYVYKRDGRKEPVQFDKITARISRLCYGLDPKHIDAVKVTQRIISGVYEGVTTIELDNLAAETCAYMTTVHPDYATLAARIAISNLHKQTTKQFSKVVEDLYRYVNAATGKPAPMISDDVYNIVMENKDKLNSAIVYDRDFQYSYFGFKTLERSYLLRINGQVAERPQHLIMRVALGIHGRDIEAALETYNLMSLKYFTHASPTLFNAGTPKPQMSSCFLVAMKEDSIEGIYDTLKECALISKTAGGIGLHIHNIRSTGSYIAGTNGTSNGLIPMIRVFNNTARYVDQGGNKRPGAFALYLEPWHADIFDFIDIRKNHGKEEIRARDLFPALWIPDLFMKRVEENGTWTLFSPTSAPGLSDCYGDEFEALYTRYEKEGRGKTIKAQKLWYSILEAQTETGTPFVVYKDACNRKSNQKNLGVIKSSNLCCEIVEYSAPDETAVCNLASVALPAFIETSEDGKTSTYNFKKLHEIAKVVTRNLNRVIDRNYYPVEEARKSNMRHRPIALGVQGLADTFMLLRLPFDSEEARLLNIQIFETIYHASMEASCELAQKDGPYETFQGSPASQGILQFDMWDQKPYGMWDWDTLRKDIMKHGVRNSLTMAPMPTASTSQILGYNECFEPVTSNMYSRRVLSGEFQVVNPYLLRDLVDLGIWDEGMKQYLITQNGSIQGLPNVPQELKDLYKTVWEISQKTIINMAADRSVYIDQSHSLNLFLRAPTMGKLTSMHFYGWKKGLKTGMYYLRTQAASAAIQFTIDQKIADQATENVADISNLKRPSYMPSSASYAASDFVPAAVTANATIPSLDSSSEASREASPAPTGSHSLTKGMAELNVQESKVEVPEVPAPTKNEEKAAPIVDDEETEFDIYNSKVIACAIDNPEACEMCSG
# T2: HA-Sml1 (3XHA tag fused to the N-terminus of Sml1, plasmid pWJ699) (Saccharomyces cerevisiae (yeast)) (UniProt Q04964)
# T2 sequence: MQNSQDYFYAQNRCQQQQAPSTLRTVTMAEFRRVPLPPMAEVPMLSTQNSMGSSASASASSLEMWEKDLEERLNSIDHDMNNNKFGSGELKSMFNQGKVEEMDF
# Assays:
# [1] = target: T1, GST-Rnr1 (glutathione-S-transferase fused to Rnr1, plasmid pWJ744) (yeast (Saccharomyces cerevisiae)); test: co-immunoprecipitation, figure legend of FIG. 6
# [2] = target: T1, GST-Rnr1 (glutathione-S-transferase fused to Rnr1, plasmid pWJ744) (yeast (Saccharomyces cerevisiae)); test: summary sentence: two-hybrid and co-immunoprecipitation
# [3] = target: T1, GST-Rnr1 (glutathione-S-transferase fused to Rnr1, plasmid pWJ744) (yeast (Saccharomyces cerevisiae)); test: co-immunoprecipitation / glutathione bead pull-down from yeast extract, western blot
# [4] = target: T1, GST-Rnr1 (glutathione-S-transferase fused to Rnr1, plasmid pWJ744) (yeast (Saccharomyces cerevisiae)); test: glutathione-bead pull-down from 500 µg yeast extract, Western blot with anti-HA (lower panel) and anti-GST (upper panel)
# [5] = target: GBD-Rnr1 two-hybrid fusion (plasmid pWJ731) (yeast (Saccharomyces cerevisiae)) (UniProt P04386+P21524); test: yeast two-hybrid, GAD-Sml1 with GBD-Rnr1
# [6] = target: T2, HA-Sml1 (3XHA tag fused to the N-terminus of Sml1, plasmid pWJ699) (Saccharomyces cerevisiae (yeast)); test: co-immunoprecipitation with anti-HA antibody and protein-G beads from 500 µg yeast extract, Western blot with anti-GST (upper panel) and anti-HA (lower panel)
binder,measurement,setting,value
"HA-Sml1 (3XHA tag fused to the N-terminus of Sml1, plasmid pWJ699) (protein, not shown: small tags and cut ends) MQNSQDYFYAQNRCQQQQAPSTLRTVTMAEFRRVPLPPMAEVPMLSTQNSMGSSASASASSLEMWEKDLEERLNSIDHDMNNNKFGSGELKSMFNQGKVEEMDF",binding,[1],binds
same,binding,[2],binds
same,binding,[3],binds
same,binding,[4],binds
"GAD-Sml1 two-hybrid fusion (plasmid pWJ684, pACTII) (protein, not shown: large carriers) MQNSQDYFYAQNRCQQQQAPSTLRTVTMAEFRRVPLPPMAEVPMLSTQNSMGSSASASASSLEMWEKDLEERLNSIDHDMNNNKFGSGELKSMFNQGKVEEMDF",binding,[5],binds
"GST-Rnr1 (glutathione-S-transferase fused to Rnr1, plasmid pWJ744) (protein, yeast (Saccharomyces cerevisiae), UniProt P21524 1-888, looked up, not shown: a dimerising Fc or GST) MYVYKRDGRKEPVQFDKITARISRLCYGLDPKHIDAVKVTQRIISGVYEGVTTIELDNLAAETCAYMTTVHPDYATLAARIAISNLHKQTTKQFSKVVEDLYRYVNAATGKPAPMISDDVYNIVMENKDKLNSAIVYDRDFQYSYFGFKTLERSYLLRINGQVAERPQHLIMRVALGIHGRDIEAALETYNLMSLKYFTHASPTLFNAGTPKPQMSSCFLVAMKEDSIEGIYDTLKECALISKTAGGIGLHIHNIRSTGSYIAGTNGTSNGLIPMIRVFNNTARYVDQGGNKRPGAFALYLEPWHADIFDFIDIRKNHGKEEIRARDLFPALWIPDLFMKRVEENGTWTLFSPTSAPGLSDCYGDEFEALYTRYEKEGRGKTIKAQKLWYSILEAQTETGTPFVVYKDACNRKSNQKNLGVIKSSNLCCEIVEYSAPDETAVCNLASVALPAFIETSEDGKTSTYNFKKLHEIAKVVTRNLNRVIDRNYYPVEEARKSNMRHRPIALGVQGLADTFMLLRLPFDSEEARLLNIQIFETIYHASMEASCELAQKDGPYETFQGSPASQGILQFDMWDQKPYGMWDWDTLRKDIMKHGVRNSLTMAPMPTASTSQILGYNECFEPVTSNMYSRRVLSGEFQVVNPYLLRDLVDLGIWDEGMKQYLITQNGSIQGLPNVPQELKDLYKTVWEISQKTIINMAADRSVYIDQSHSLNLFLRAPTMGKLTSMHFYGWKKGLKTGMYYLRTQAASAAIQFTIDQKIADQATENVADISNLKRPSYMPSSASYAASDFVPAAVTANATIPSLDSSSEASREASPAPTGSHSLTKGMAELNVQESKVEVPEVPAPTKNEEKAAPIVDDEETEFDIYNSKVIACAIDNPEACEMCSG",binding,[6],binds
